Results are given in words; binding and its absence hold for the method and conditions named. Binding can be weak; no strength is given.
Molecular target: MdCAX3L-2 (apple (Malus domestica))
Assay: two-hybrid; yeast two-hybrid membrane protein system (MoBiTec); bait vector pBT3-N, prey vector pPR3-N, yeast strain NMY51; selection on SD -Leu/-Trp/-His/-Ade with 2.5 mM 3-AT, with or without X-alpha-gal (20 ug/ml)

Sequences of proteins named here, by UniProt entry; tags and fusion partners are left off. A change or cut given only in a name is not applied to a line headed by its entry.
UniProt A0A894JZQ6: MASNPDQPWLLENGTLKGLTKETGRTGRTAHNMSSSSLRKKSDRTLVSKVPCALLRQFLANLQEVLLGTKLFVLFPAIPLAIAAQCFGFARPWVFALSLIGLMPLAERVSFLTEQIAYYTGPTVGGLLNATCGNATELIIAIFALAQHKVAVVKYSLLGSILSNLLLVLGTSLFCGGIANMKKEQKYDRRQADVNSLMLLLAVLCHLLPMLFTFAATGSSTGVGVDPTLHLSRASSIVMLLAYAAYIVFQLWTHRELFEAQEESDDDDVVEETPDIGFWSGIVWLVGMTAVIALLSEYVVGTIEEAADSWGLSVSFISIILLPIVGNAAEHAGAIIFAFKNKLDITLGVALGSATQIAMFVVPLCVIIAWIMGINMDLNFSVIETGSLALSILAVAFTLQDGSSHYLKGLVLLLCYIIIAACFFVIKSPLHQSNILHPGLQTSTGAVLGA

With MdCAX3L-1 (from UniProt A0A894JZQ6) the binding was “binds”.
